Data source: PubChem BioAssay AID493246 (Drosophila RNAi Screening Center, 2011)
The screen tested about 21,000 reagents; this is a random part of those that have a named target and a result. Over the whole deposit, 429 (2%) are marked active. 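Values are raw and not normalised between plates; calls rest on per-plate z-scores that were not deposited.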 A plus sign joins genes that one reagent is predicted to hit. Reagent sequences are not shown. Not given: the amount of reagent, the time to read-out.

Test: 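Genes fly cells need to grow and stay alive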 (primary screen)
Cells: Drosophila Kc and S2R+ cells
Reagent: long dsRNA against Drosophila genes
Measured: 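Cell number per well after knock-down, printed as raw plate values; calls were based on per-plate z-scores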
Reading the numbers: Kc cell number and S2R+ cell number: higher = more cells remaining
Hit rule: 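Counted as a hit if cell number falls by a z-score of at least 3 within its plate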

Against AP-2sigma [DRSC15957], the values are Kc cell number, rep 1 = 1.37e6; Kc cell number, rep 2 = 1.40e6; S2R+ cell number, rep 1 = 1.04e6; S2R+ cell number, rep 2 = 1.18e6; inactive.
After knock-down of ppk18 [DRSC02216], the screen gave Kc cell number, rep 1 = 1.62e6; Kc cell number, rep 2 = 1.65e6; S2R+ cell number, rep 1 = 1.24e6; S2R+ cell number, rep 2 = 1.42e6; inactive.
Depletion of CG32069 + Blos2 [DRSC10621] gave: Kc cell number, rep 1 = 1.37e6; Kc cell number, rep 2 = 1.41e6; S2R+ cell number, rep 1 = 1.19e6; S2R+ cell number, rep 2 = 1.11e6; inactive.
Depletion of CG9932 [DRSC03275] came out at: Kc cell number, rep 1 = 1.62e6; Kc cell number, rep 2 = 1.69e6; S2R+ cell number, rep 1 = 1.20e6; S2R+ cell number, rep 2 = 1.36e6; inactive.
After knock-down of CG32259 [DRSC08082], the screen gave Kc cell number, rep 1 = 1.51e6; Kc cell number, rep 2 = 1.53e6; S2R+ cell number, rep 1 = 9.90e5; S2R+ cell number, rep 2 = 1.15e6; inactive.
Against Dnai2 [DRSC10575], the entry reads Kc cell number, rep 1 = 1.47e6; Kc cell number, rep 2 = 1.47e6; S2R+ cell number, rep 1 = 1.03e6; S2R+ cell number, rep 2 = 1.10e6; inactive.
For CG31174 [DRSC13518] the deposit lists Kc cell number, rep 1 = 1.47e6; Kc cell number, rep 2 = 1.45e6; S2R+ cell number, rep 1 = 9.87e5; S2R+ cell number, rep 2 = 1.09e6; inactive.
After knock-down of DCTN2-p50 [DRSC07132] the results were Kc cell number, rep 1 = 1.32e6; Kc cell number, rep 2 = 1.39e6; S2R+ cell number, rep 1 = 1.17e6; S2R+ cell number, rep 2 = 1.24e6; inactive.
After knock-down of Rift [DRSC14330] the results were Kc cell number, rep 1 = 1.49e6; Kc cell number, rep 2 = 1.44e6; S2R+ cell number, rep 1 = 1.01e6; S2R+ cell number, rep 2 = 1.07e6; inactive.
With knock-down of pen-2 [DRSC05722] the results were Kc cell number, rep 1 = 5.54e5; S2R+ cell number, rep 1 = 7.57e5; inactive.
Depletion of CG1532 [DRSC20516] came out at: Kc cell number, rep 1 = 1.48e6; Kc cell number, rep 2 = 1.53e6; S2R+ cell number, rep 1 = 1.00e6; S2R+ cell number, rep 2 = 1.12e6; inactive.
CG13004 [DRSC19523] showed Kc cell number, rep 1 = 1.42e6; Kc cell number, rep 2 = 1.47e6; S2R+ cell number, rep 1 = 1.10e6; S2R+ cell number, rep 2 = 1.16e6; inactive.
Depletion of CG11180 [DRSC06055] resulted in: Kc cell number, rep 1 = 1.39e6; Kc cell number, rep 2 = 1.44e6; S2R+ cell number, rep 1 = 1.10e6; S2R+ cell number, rep 2 = 1.15e6; inactive.
With knock-down of CG5080 [DRSC00677], the record shows Kc cell number, rep 1 = 1.23e6; Kc cell number, rep 2 = 1.28e6; S2R+ cell number, rep 1 = 9.04e5; S2R+ cell number, rep 2 = 8.93e5; inactive.
For CG3534 [DRSC15494] the deposit lists Kc cell number, rep 1 = 1.47e6; Kc cell number, rep 2 = 1.52e6; S2R+ cell number, rep 1 = 1.22e6; S2R+ cell number, rep 2 = 1.30e6; inactive.

As entered above.
Under “activity call”, CG32259 [DRSC08082] shows inactive
CG11180 [DRSC06055], activity call = inactive
For “activity call”, ppk18 [DRSC02216] shows inactive

Further reagents:
Against Polr3F [DRSC15785] the deposit lists Kc cell number, rep 1 = 1.37e6; Kc cell number, rep 2 = 1.42e6; S2R+ cell number, rep 1 = 1.08e6; S2R+ cell number, rep 2 = 1.18e6; inactive.
Knock-down of CG14676 [DRSC12262] came out at: Kc cell number, rep 1 = 1.50e6; Kc cell number, rep 2 = 1.76e6; S2R+ cell number, rep 1 = 1.23e6; S2R+ cell number, rep 2 = 1.35e6; inactive.
Against CG34248 [DRSC09426], the entry reads Kc cell number, rep 1 = 1.41e6; Kc cell number, rep 2 = 1.50e6; S2R+ cell number, rep 1 = 1.08e6; S2R+ cell number, rep 2 = 1.28e6; inactive.
For Vang [DRSC07570], the values are Kc cell number, rep 1 = 1.80e6; Kc cell number, rep 2 = 1.81e6; S2R+ cell number, rep 1 = 1.39e6; S2R+ cell number, rep 2 = 1.55e6; inactive.
CG15635 [DRSC00470] scored Kc cell number, rep 1 = 1.59e6; Kc cell number, rep 2 = 1.55e6; S2R+ cell number, rep 1 = 1.09e6; S2R+ cell number, rep 2 = 1.17e6; inactive.
With knock-down of Cyp313b1 [DRSC16629], the record shows Kc cell number, rep 1 = 1.46e6; Kc cell number, rep 2 = 1.75e6; S2R+ cell number, rep 1 = 1.23e6; S2R+ cell number, rep 2 = 1.29e6; inactive.
Knock-down of Gpdh1 [DRSC03336] resulted in: Kc cell number, rep 1 = 1.26e6; Kc cell number, rep 2 = 1.36e6; S2R+ cell number, rep 1 = 7.24e5; S2R+ cell number, rep 2 = 8.37e5; inactive.
CG42493 [DRSC05309] showed Kc cell number, rep 1 = 1.23e6; Kc cell number, rep 2 = 1.21e6; S2R+ cell number, rep 1 = 9.58e5; S2R+ cell number, rep 2 = 1.10e6; inactive.
Against slo [DRSC17057] the deposit lists Kc cell number, rep 1 = 1.56e6; Kc cell number, rep 2 = 1.56e6; S2R+ cell number, rep 1 = 1.28e6; S2R+ cell number, rep 2 = 1.30e6; inactive.
Against Pp4-19C [DRSC20559], the values are Kc cell number, rep 1 = 1.33e6; Kc cell number, rep 2 = 1.36e6; S2R+ cell number, rep 1 = 8.23e5; S2R+ cell number, rep 2 = 9.57e5; inactive.
With knock-down of Pp4-19C [DRSC21251], the record shows Kc cell number, rep 1 = 1.43e6; Kc cell number, rep 2 = 1.43e6; S2R+ cell number, rep 1 = 8.72e5; S2R+ cell number, rep 2 = 1.00e6; inactive.
After knock-down of loj [DRSC09791], the screen gave Kc cell number, rep 1 = 1.34e6; Kc cell number, rep 2 = 1.41e6; S2R+ cell number, rep 1 = 1.26e6; S2R+ cell number, rep 2 = 1.12e6; inactive.
